Reference: patent US10792324B2, “Compositions and methods for the treatment of orthopedic ailments” (K.L.R.M., LLC, priority 2016, dated 2020)
At least one structure is not confirmed: it was looked up by name or label, or the drawing left a doubt.

Tests used:
Format in all cases: in vivo, rat
femur fracture [1] = assay: Biomechanical evaluation (torsion to failure) of healing femur fracture
Experimental: (§1) As briefly mentioned above, efficacy of the present nutraceutical composition was tested. Fifty-eight male Sprague-Dawley rats (10 weeks old, body weight (BW): 344±11 g) were used for this study, which was approved by the Institutional Animal Care and Use Committee of the Charles R. Drew University of Medicine and Science. The rats were housed for one week prior to experimental procedures to permit acclimatization and then randomly assigned to three groups. The control group (n=19 rats) received 0.2 ml of vehicle composed of 10% dimethyl sulfoxide (DMSO), peanut butter and water by retro-lingual administration. The tadalafil group (n=20 rats) was given a daily oral dose of 2.0 mg/kg body weight (BW) of the PDE5 inhibitor, tadalafil (Eli Lilly, Indianapolis, Ind.), mixed with vehicle. […] The appropriate rat dose of each of the four components of COMB-4 was calculated based on the equivalent recommended human daily dose as previously reported. […] Unprotected weight bearing was permitted immediately postoperatively, and on day 14, 5 rats from each group were euthanized using inhalational CO2 and femora were harvested for qCT (quantitative computerized tomography) and histological evaluation. […]

iNOS = assay: Immunohistochemical expression of iNOS in fracture callus
femur fracture [2] = assay: Callus development analysis via qCT after femur fracture; conditions: day 14 and day 42
Experimental: as §1

`CN1CC(=O)N2[C@H](c3ccc4c(c3)OCO4)c3[nH]c4ccccc4c3C[C@@H]2C1=O` [Tadalafil, tadalafil] was tested, and the “fracture healing compared to controls (biomechanical fracture repair stage, maximum torque, torsional stiffness)” value (femur fracture [1]; after 42 days of daily treatment) was “not significantly enhanced”, the “Stage IV fracture repairs seen in treatment group” value (femur fracture [1]; day 42, share of group) was “not seen” and the “iNOS expression at the callus level compared to control group” value (iNOS; 14 days post-fracture, immunohistochemistry) was “significantly increased”. For the same compound, the “iNOS expression at the callus level” value (iNOS; day 42, immunohistochemistry) was “returned to baseline values” and the “mineral content and mineralized callus volume, difference compared to control group” value (femur fracture [2]) was “neither the tadalafil nor the COMB-4 group demonstrated statistical difference”.
